# Experimental data: the supplement of paper PMC9744312
# Structures can show the parent of a compound that is named as a salt. This is one part of the list. The data scatter; read single values as rough.
# System: Peyronie's disease tunica albuginea primary fibroblasts
# Experiment: inhibition of TGF-beta1-induced alpha-SMA expression (myofibroblast transformation), relative to TGF-beta1-only and untreated controls; higher = stronger inhibition of myofibroblast transformation
# Conditions: 10 µM; TGF-beta1 10 ng/mL; 72 h
row,Structure (SMILES),inhibition of TGF-beta1-induced alpha-SMA expression [%]
1,N=C(N)NC(=O)Cc1c(Cl)cccc1Cl [Guanfacine Hydrochloride],18.9
2,COc1cc(O)c(C(=O)c2ccccc2)cc1S(=O)(=O)O [Sulisobenzone],-19.8
3,Nc1cccc2c1C(=O)N(C1CCC(=O)NC1=O)C2=O (stereo unspecified) [Pomalidomide],60.4
4,Nc1ccn([C@@H]2O[C@H](CO)[C@@H](O)C2(F)F)c(=O)n1 [Gemcitabine HCl],-4.16
5,Nc1ccn([C@@H]2O[C@H](CO)[C@@H](O)C2(F)F)c(=O)n1 [Gemcitabine],5.37
6,CC(O)C(=O)O.N (stereo unspecified) [Ammonium lactate],10.9
7,CN(C)CCN(Cc1ccccc1)c1ccccn1 [Tripelennamine HCl],14
8,CC1CNc2c(cccc2S(=O)(=O)N[C@@H](CCCNC(=N)N)C(=O)N2CC[C@@H](C)C[C@@H]2C(=O)O)C1 (stereo partly specified) [Argatroban Monohydrate],27.7
9,CC1CNc2c(cccc2S(=O)(=O)N[C@@H](CCCNC(=N)N)C(=O)N2CC[C@@H](C)C[C@@H]2C(=O)O)C1 (stereo partly specified) [Argatroban],15.4
10,CO[C@H]1C[C@@H]2CC[C@@H](C)[C@@](O)(O2)C(=O)C(=O)N2CCCC[C@H]2C(=O)O[C@H]([C@H](C)C[C@@H]2CC[C@@H](OCCO)[C@H](OC)C2)CC(=O)[C@H](C)/C=C(\C)[C@@H](O)[C@@H](OC)C(=O)[C@H](C)C[C@H](C)/C=C/C=C/C=C/1C [Everolimus (RAD001)],-40.7
11,CC(=O)O[C@@]12CO[C@@H]1C[C@H](O)[C@@]1(C)C(=O)[C@H](O)C3=C(C)[C@@H](OC(=O)[C@H](O)[C@@H](NC(=O)OC(C)(C)C)c4ccccc4)C[C@@](O)([C@@H](OC(=O)c4ccccc4)[C@H]21)C3(C)C [Docetaxel],70.2
12,CC(=O)O[C@@]12CO[C@@H]1C[C@H](O)[C@@]1(C)C(=O)[C@H](O)C3=C(C)[C@@H](OC(=O)[C@H](O)[C@@H](NC(=O)OC(C)(C)C)c4ccccc4)C[C@@](O)([C@@H](OC(=O)c4ccccc4)[C@H]21)C3(C)C [Docetaxel Trihydrate],82.6
13,Clc1ccc(CSC(Cn2ccnc2)c2ccc(Cl)cc2Cl)cc1 (stereo unspecified) [Sulconazole Nitrate],52.9
14,Nc1ncnc2c1ncn2[C@@H]1O[C@H](CO)[C@@H](O)[C@H]1O [Adenosine],-2.73
15,CC(=O)Oc1ccc(C(=C2CCCCC2)c2ccc(OC(C)=O)cc2)cc1 [Cyclofenil],0.151
16,CC(C)c1cc(-c2n[nH]c(=O)n2-c2ccc3c(ccn3C)c2)c(O)cc1O [Ganetespib (STA-9090)],> 100
17,CC(=O)O[C@]1(C(C)=O)CC[C@H]2[C@@H]3C=C(Cl)C4=CC(=O)[C@@H]5C[C@@H]5[C@]4(C)[C@H]3CC[C@@]21C [Cyproterone Acetate],9.78
18,CCCSc1nc(N[C@@H]2C[C@H]2c2ccc(F)c(F)c2)c2nnn([C@@H]3C[C@H](OCCO)[C@@H](O)[C@H]3O)c2n1 [Ticagrelor],-11.1
19,O=C(O)COCCN1CCN(C(c2ccccc2)c2ccc(Cl)cc2)CC1 (stereo unspecified) [Cetirizine DiHCl],-6.34
20,N[C@@H]1CONC1=O [D-Cycloserine],46
21,N[C@@H](Cc1c[nH]c2ccc(O)cc12)C(=O)O [5-hydroxytryptophan (5-HTP)],16.7

row,Structure (SMILES),inhibition of TGF-beta1-induced alpha-SMA expression [%]
1,CC#CC(=O)N1CCC[C@H]1c1nc(-c2ccc(C(=O)Nc3ccccn3)cc2)c2c(N)nccn12 [Acalabrutinib (ACP-196)],75.2
2,CN1C[C@@H]2C[C@H]1CN2c1cc2c(cc1F)c(=O)c(C(=O)O)cn2C1CC1 [Danofloxacin Mesylate],17.8
3,NC(=O)c1nc(F)cnc1O [Favipiravir (T-705)],36.2
4,N=C(N)Nc1ccc(C(=O)Oc2ccc3cc(C(=N)N)ccc3c2)cc1 [Nafamostat Mesylate],17.9
5,COc1cc2nc(N(C)CCCNC(=O)C3CCCO3)nc(N)c2cc1OC (stereo unspecified) [Alfuzosin HCl],13.3
6,CCCCc1nc2cc(/C=C/C(=O)NO)ccc2n1CCN(CC)CC [Pracinostat (SB939)],> 100
7,CCCCCOc1ccc(-c2cc(-c3ccc(C(=O)N[C@H]4C[C@@H](O)[C@@H](O)NC(=O)[C@@H]5[C@@H](O)[C@@H](C)CN5C(=O)[C@H]([C@H](O)CC(N)=O)NC(=O)[C@H]([C@H](O)[C@@H](O)c5ccc(O)c(OS(=O)(=O)O)c5)NC(=O)[C@@H]5C[C@@H](O)CN5C(=O)[C@H]([C@@H](C)O)NC4=O)cc3)no2)cc1 [Micafungin Sodium],-1.91
8,CC(=O)Oc1ccccc1C(=O)O [Aspirin],21.6
9,CNS(=O)(=O)CCc1ccc2[nH]cc(C3CCN(C)CC3)c2c1 [Naratriptan HCl],16
10,O=C(Nc1nc2cccc(-c3ccc(CN4CCS(=O)(=O)CC4)cc3)n2n1)C1CC1 [Filgotinib (GLPG0634)],-11.3
11,N=C(N)NS(=O)(=O)c1ccc(N)cc1 [Sulfaguanidine],-0.812
12,C[C@]12CC[C@H](O)CC1=CC[C@@H]1[C@@H]2CC[C@]2(C)C(n3cnc4ccccc43)=CC[C@@H]12 [Galeterone],-7.02
13,CNC(=O)CN(CCN(CCN(CC(=O)[O-])CC(=O)NC)CC(=O)[O-])CC(=O)[O-].O.[Gd+3] [Gadodiamide Hydrate],5.91
14,CC1=C(/C=C/C(C)=C/C=C/C(C)=C/C(=O)O)C(C)(C)CCC1 [Tretinoin],-19.4
15,CCc1c(C)[nH]c2c1C(=O)C(CN1CCOCC1)CC2 (stereo unspecified) [Molindone hydrochloride],7.55
16,C#Cc1cccc(Nc2ncnc3cc4c(cc23)OCCOCCOCCO4)c1 [Icotinib],-21
17,C=CC(=O)Nc1cc(Nc2nccc(-c3cn(C)c4ccccc34)n2)c(OC)cc1N(C)CCN(C)C [Osimertinib (AZD9291)],> 100
18,N[C@@H](CCC(=O)N[C@@H](CS)C(=O)NCC(=O)O)C(=O)O [Glutathione],2.68
19,CC1=C(C(=O)O)N2C(=O)[C@@H](NC(=O)[C@H](N)C3=CCC=CC3)[C@H]2SC1 [Cefradine],6.72
20,CC1=C(C(=O)O)N2C(=O)[C@@H](NC(=O)[C@H](N)C3=CCC=CC3)[C@H]2SC1 [Cephradine monohydrate],40.6

# Already shown: an excerpt of the list.
row,Structure (SMILES),inhibition of TGF-beta1-induced alpha-SMA expression [%]
8,CC1CNc2c(cccc2S(=O)(=O)N[C@@H](CCCNC(=N)N)C(=O)N2CC[C@@H](C)C[C@@H]2C(=O)O)C1 (stereo partly specified) [Argatroban Monohydrate],27.7
9,CC1CNc2c(cccc2S(=O)(=O)N[C@@H](CCCNC(=N)N)C(=O)N2CC[C@@H](C)C[C@@H]2C(=O)O)C1 (stereo partly specified) [Argatroban],15.4
10,CO[C@H]1C[C@@H]2CC[C@@H](C)[C@@](O)(O2)C(=O)C(=O)N2CCCC[C@H]2C(=O)O[C@H]([C@H](C)C[C@@H]2CC[C@@H](OCCO)[C@H](OC)C2)CC(=O)[C@H](C)/C=C(\C)[C@@H](O)[C@@H](OC)C(=O)[C@H](C)C[C@H](C)/C=C/C=C/C=C/1C [Everolimus (RAD001)],-40.7
11,CC(=O)O[C@@]12CO[C@@H]1C[C@H](O)[C@@]1(C)C(=O)[C@H](O)C3=C(C)[C@@H](OC(=O)[C@H](O)[C@@H](NC(=O)OC(C)(C)C)c4ccccc4)C[C@@](O)([C@@H](OC(=O)c4ccccc4)[C@H]21)C3(C)C [Docetaxel],70.2
12,CC(=O)O[C@@]12CO[C@@H]1C[C@H](O)[C@@]1(C)C(=O)[C@H](O)C3=C(C)[C@@H](OC(=O)[C@H](O)[C@@H](NC(=O)OC(C)(C)C)c4ccccc4)C[C@@](O)([C@@H](OC(=O)c4ccccc4)[C@H]21)C3(C)C [Docetaxel Trihydrate],82.6
13,Clc1ccc(CSC(Cn2ccnc2)c2ccc(Cl)cc2Cl)cc1 (stereo unspecified) [Sulconazole Nitrate],52.9
14,Nc1ncnc2c1ncn2[C@@H]1O[C@H](CO)[C@@H](O)[C@H]1O [Adenosine],-2.73
15,CC(=O)Oc1ccc(C(=C2CCCCC2)c2ccc(OC(C)=O)cc2)cc1 [Cyclofenil],0.151
16,CC(C)c1cc(-c2n[nH]c(=O)n2-c2ccc3c(ccn3C)c2)c(O)cc1O [Ganetespib (STA-9090)],> 100
